# Library screen at single concentrations

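Whole-parasite assay of Trypanosoma brucei over 72 hours; the read-out is not stated. Concentration: 30 µM. The record gives no direction; compounds that gave an IC50 in retests scored well above the rest, so higher reads as stronger inhibition. Values scatter widely below zero; nearly all retest evidence comes from the higher of the two concentrations used. Size under these conditions: about 64,000 compounds, about 940 of them at 50% or above in at least one test.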

Each number is a percent effect as filed. The record does not define 0% and 100%; most values in the screen are far below 50% and negative numbers occur (in some assays of this library far below -100). The compounds are a random part of those screened.

Result for O=C(NCc1cnc2n1CCN(Cc1ccsc1)CC2)C1CCC1.O=C(O)C(F)(F)F was 11.25%.
Result for O=C(NCCNc1ncccn1)N1CCCC1 was -13.32%.
Result for CC(CNC(=O)c1ccccc1Oc1cccnc1)N(C)C (configuration not stated) was 6.956%.
Result for O=C(NCCN1CCCC1)c1cc2c(s1)CCN2c1ncccn1 was 35.85%.
Result for CC(C)c1nnc2n1CCN(C(=O)c1cnc(C3CC3)s1)C2 was -14.82%.
Result for OC1CCN(c2nc(-c3ccccc3)no2)CC1 was -22.28%.
Result for [H][C@@]12CN(C(=O)c3cccnc3)C[C@]1([H])OCC(=O)N2Cc1cccnc1 was -10.72%.
Result for Cc1cc(C)n(NC(=O)c2ccccc2C)c(=O)c1 was 0.1373%.
Result for Cc1nc2c(c(=O)[nH]1)CCN(C(=O)c1[nH]nc3c1CC(C)CC3)C2 (configuration not stated) was -66.97%.
Result for O=C(NCCN1CCOCC1)NCc1cccnc1-n1cccn1 was -29.54%.
Result for Cc1nn(C)c(Cl)c1C1CCCN1CC(=O)NCc1ccccn1 (configuration not stated) was 4.231%.
Result for COc1cccc(-c2nc3c([nH]2)CC(C)(C)CNC3=O)c1OC was 6.129%.
Result for CC[C@H]1CN(S(C)(=O)=O)CC[C@H]1CC(=O)NCCOC was -49.23%.
Result for CCc1nc(CN(C)C2CCN(CC(F)(F)F)C2)no1 (configuration not stated) was 7.24%.
Result for COCC(O)CN(C)c1ccnc2ccc(Cl)cc12 (configuration not stated) was -17.94%.
Result for CC(C)Oc1ccc(C(=O)Cn2cnnc2[S+](C)[O-])cc1 (configuration not stated) was -24.74%.
Result for CC1CCCCN1c1nc2c(c(=O)[nH]1)CCN(Cc1ccccn1)C2 (configuration not stated) was -40.37%.
Result for COC(=O)Cn1c(=O)cc(C(F)F)c2c(C)nn(CC(F)F)c21 was -10.84%.
Result for O=S1(=O)NC(C2CCN(Cc3ccccn3)CC2)Nc2ccccc21 (configuration not stated) was 4.191%.
Result for Cc1cc(C)n(-c2cncc(N3CCN(C(=O)C(C)(C)C)CC3)n2)n1 was 23.07%.
Result for O=C1CCC(C(=O)Nc2ccc(=O)n(Cc3ccc(Cl)c(Cl)c3)c2)N1 (configuration not stated) was -2.502%.
Result for COc1ccc(CN2CCC3(CC2)CC(CC(=O)NC(C)C)CO3)cc1.O=C(O)C(F)(F)F (configuration not stated) was -56.31%.
Result for CCN(Cc1ccco1)C(=O)NCC(C)N1CCc2sccc2C1 (configuration not stated) was -53.67%.
Result for CS(=O)(=O)CCC(=O)Nc1cc(Cl)c(Cl)cn1 was -68.26%.
Result for Cc1cnc2c(C(=O)N(C)Cc3cc(C4CC4)[nH]n3)cnn2c1 was -50.25%.
Result for Cc1cccc(CN2Cc3nccn3CC(CN3CCOCC3)C2)c1.O=C(O)C(F)(F)F.O=C(O)C(F)(F)F (configuration not stated) was 58.02%.
Result for CC(C(=O)NCc1ccc(N2CCN(C)CC2)nc1)n1cccn1 (configuration not stated) was 6.915%.
Result for [H][C@@]12CN(Cc3nccs3)C[C@H](C(=O)N3CCCC3)[C@]1([H])CCO2 was -19.08%.
Result for COCCCNc1c(-c2ccc(C)cc2)c(=O)c1=O was -10.38%.
Result for O=C(c1ncc[nH]1)N1CCC(n2cc(-c3ccccn3)nn2)CC1 was -21.95%.
Result for COCCNS(=O)(=O)c1ccc(Cl)c(C(=O)N(C)Cc2ccsc2)c1 was -24.89%.
Result for CN1CCC2(CC1)OC(C(=O)NCc1cccnc1)Cn1ccnc12 (configuration not stated) was -208.8%.
Result for Cc1cc(C)cc(OCCC(=O)N2CCOCC2c2ncon2)c1 (configuration not stated) was -34.67%.
Result for O=C(c1cncc(Br)c1)N1CCCc2c(F)cc(F)cc21 was -33.71%.
Result for Cn1cccc1CN1CCC2(CCCN(C(=O)c3cccnc3)C2)CC1.O=C(O)C(F)(F)F.O=C(O)C(F)(F)F was -102.9%.
Result for Cc1nc(-c2ccccc2)sc1CNC1CCc2ncnn2C1 (configuration not stated) was 0.1426%.
Result for O=C(O)c1ccn(-c2ccccc2NS(=O)(=O)c2cccc(F)c2)n1 was -26.24%.
Result for CNc1nccnc1C1CN(C(=O)c2cc[nH]n2)CCO1 (configuration not stated) was -1.054%.
Result for COc1cc(CNCc2c(C)nn(CC(C)C)c2N(C)C)ccn1 was -9.16%.
Result for Cc1nccc(C2CCCCN2Cc2ccccc2)n1 (configuration not stated) was -8.908%.
Result for CCCn1nc2c(cc1=O)CN(C(C)C(=O)Nc1nccs1)CC2 (configuration not stated) was -33.37%.
Result for O=C(NCCN1CCOCC1)c1cc(-c2ccccc2Cl)[nH]n1 was -9.61%.
Result for Cc1noc(C)c1CN1CCc2ncnc(-c3ccncc3)c2CC1.O=C(O)C(F)(F)F.O=C(O)C(F)(F)F was -60.85%.
Result for Cl.Cl.O[C@@H]1C[C@@](CNCc2cccc(Cl)c2)(COc2cccnc2)C[C@@H]1O was 1.588%.
Result for Fc1cccc(N2CCOC3(CCCN(c4cnccn4)C3)C2)c1 (configuration not stated) was -3.614%.
Result for c1cc(NC2CC3(CCN(Cc4cscn4)C3)C2)ncn1 (configuration not stated) was 13.88%.
Result for CCN1CC(COC(=O)c2ccc(N(C)C)cc2F)CC1=O (configuration not stated) was 0.2341%.
Result for Cc1cc(NC(C)c2nncn2C2CCCC2)n2nc(C)c(C)c2n1 (configuration not stated) was -4.861%.
Result for Cc1cc(C)n(CC2CN(CCOc3ccc(C#N)cc3)CCO2)n1 (configuration not stated) was 4.358%.

For reference, 5 entries once more:

* Cc1cccc(CN2Cc3nccn3CC(CN3CCOCC3)C2)c1.O=C(O)C(F)(F)F.O=C(O)C(F)(F)F (configuration not stated) : 58.02%
* COc1ccc(CN2CCC3(CC2)CC(CC(=O)NC(C)C)CO3)cc1.O=C(O)C(F)(F)F (configuration not stated) : -56.31%
* Cc1nc2c(c(=O)[nH]1)CCN(C(=O)c1[nH]nc3c1CC(C)CC3)C2 (configuration not stated) : -66.97%
* COc1cccc(-c2nc3c([nH]2)CC(C)(C)CNC3=O)c1OC : 6.129%
* O=C(O)c1ccn(-c2ccccc2NS(=O)(=O)c2cccc(F)c2)n1 : -26.24%

Measurements from “University of Dundee, Small-Polar-MMV Screening Library” (2021), ChEMBL document CHEMBL3988442.